Assay results published in US20150185224A1, “[…] CANCER RESPONSIVENESS TO BCG” (MEMORIAL SLOAN-KETTERING CANCER CENTER, priority 2012, published 2015).
At least one compound was matched to its structure with a doubt left.

Tested on: VMCUB-3 transfected with H-ras (G12V)
Format: cell-based, human

COC[C@H]1OC(=O)c2coc3c2[C@@]1(C)C1=C(C3=O)[C@@H]2CCC(=O)[C@@]2(C)C[C@H]1OC(C)=O [wortmannin]
effect on increased BCG uptake in a cell line with activated Ras: inhibited increased BCG uptake
